No constants are given. Whether binding was seen depends on the method and setting. In cells and extracts the contact can be indirect. Some results given as binding are weak or reduced against the parent protein; the word gives no strength. For part of these data: Where a sequence is shown, tags or fusion partners need not be part of it. Values belong to the molecule of their own block, whether it stands above or below them.
How the values were obtained:
PACSIN2-GFP = PACSIN2-GFP (UniProt Q9UNF0); test: co-IP; GFP-Trap magnetic agarose beads (Chromotek) on lysates of HUVECs expressing GFP, PACSIN2-GFP or EHD4-GFP, or untransduced; lysis buffer 20 mM HEPES pH 7.4, 150 mM NaCl, 1.7 mM CaCl2, 0.5% NP-40; overnight at 4 °C; detected by Western blot
EHD4-GFP (human) = biological target: T1, EHD4-GFP (human) (UniProt Q9H223); test: as above
T1 sequence: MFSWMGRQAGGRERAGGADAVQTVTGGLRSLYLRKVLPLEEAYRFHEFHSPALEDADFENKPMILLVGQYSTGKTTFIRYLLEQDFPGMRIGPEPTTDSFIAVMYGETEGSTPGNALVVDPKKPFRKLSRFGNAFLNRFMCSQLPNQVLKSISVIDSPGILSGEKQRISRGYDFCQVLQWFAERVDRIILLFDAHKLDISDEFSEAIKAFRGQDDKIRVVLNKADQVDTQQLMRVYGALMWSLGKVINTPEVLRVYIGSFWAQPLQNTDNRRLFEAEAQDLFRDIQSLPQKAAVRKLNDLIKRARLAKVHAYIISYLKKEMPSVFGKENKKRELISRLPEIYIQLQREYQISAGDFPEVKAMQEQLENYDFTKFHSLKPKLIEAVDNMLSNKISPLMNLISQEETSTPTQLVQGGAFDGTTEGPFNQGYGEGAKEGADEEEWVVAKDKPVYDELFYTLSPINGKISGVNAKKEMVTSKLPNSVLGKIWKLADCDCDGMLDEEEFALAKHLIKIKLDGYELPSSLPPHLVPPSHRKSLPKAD

Amino acid sequences for entries named in this document (tags omitted).
UniProt Q9UNF0: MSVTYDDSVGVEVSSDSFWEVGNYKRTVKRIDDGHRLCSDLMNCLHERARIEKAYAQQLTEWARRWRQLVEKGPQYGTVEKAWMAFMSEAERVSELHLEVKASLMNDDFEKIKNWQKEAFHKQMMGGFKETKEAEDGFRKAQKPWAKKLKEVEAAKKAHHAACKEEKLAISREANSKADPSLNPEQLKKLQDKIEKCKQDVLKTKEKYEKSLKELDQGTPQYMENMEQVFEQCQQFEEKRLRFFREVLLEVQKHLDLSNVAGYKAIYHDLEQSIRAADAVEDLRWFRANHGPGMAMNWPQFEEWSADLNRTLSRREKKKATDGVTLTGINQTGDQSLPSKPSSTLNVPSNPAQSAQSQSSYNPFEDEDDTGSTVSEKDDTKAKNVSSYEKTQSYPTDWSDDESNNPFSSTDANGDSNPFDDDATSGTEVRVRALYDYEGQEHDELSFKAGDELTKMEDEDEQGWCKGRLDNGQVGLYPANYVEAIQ
UniProt Q8N3F8: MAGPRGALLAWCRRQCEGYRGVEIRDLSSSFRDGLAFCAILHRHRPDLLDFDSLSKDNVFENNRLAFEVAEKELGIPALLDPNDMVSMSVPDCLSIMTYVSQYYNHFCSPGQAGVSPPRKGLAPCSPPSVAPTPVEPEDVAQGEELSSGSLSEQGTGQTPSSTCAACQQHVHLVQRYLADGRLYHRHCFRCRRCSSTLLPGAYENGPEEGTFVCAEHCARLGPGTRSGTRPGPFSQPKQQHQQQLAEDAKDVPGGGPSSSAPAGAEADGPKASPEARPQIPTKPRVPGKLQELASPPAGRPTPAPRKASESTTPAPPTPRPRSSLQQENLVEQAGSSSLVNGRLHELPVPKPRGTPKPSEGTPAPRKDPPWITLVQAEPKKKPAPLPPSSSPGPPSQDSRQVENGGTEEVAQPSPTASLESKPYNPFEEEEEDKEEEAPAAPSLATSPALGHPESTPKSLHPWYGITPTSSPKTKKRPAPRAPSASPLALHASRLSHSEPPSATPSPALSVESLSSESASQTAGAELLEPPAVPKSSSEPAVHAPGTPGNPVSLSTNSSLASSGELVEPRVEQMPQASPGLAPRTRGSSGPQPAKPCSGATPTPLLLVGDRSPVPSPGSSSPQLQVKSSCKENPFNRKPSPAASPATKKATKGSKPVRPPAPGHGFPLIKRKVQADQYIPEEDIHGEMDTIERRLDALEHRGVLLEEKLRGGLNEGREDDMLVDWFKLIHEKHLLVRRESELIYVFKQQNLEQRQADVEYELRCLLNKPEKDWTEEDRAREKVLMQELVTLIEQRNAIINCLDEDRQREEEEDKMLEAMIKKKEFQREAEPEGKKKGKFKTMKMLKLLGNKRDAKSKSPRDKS

binding (PACSIN2-GFP): binds
Molecule: MICAL-L1 (endogenous) (from UniProt Q8N3F8 1-863)

binding (EHD4-GFP (human)): binds
Molecule: PACSIN2 (endogenous) (from UniProt Q9UNF0 1-486)

binding (PACSIN2-GFP): binds
B1: EHD4 (endogenous) (protein, UniProt Q9H223 1-541)
chain: T1 sequence

Reference: PMC8110786
